Reference: PubChem BioAssay AID1671190 (National Center for Advancing Translational Sciences (NCATS), 2021)
The campaign covered roughly 580,000 compounds. About 6,100 (1.1%) were called active. Inconclusive results, whose numbers are uncertain, are shown with a selection of clear calls. The call rests on the fitted dose curve; in most records, active means well fitted inhibition curve with a large enough effect; inconclusive means small, poorly fitted or top-dose-only effect, or another doubt; inactive means no such curve, though single readings can be large or run the other way. Potencies of inconclusive entries are doubtful fits and often do not repeat. Some structures have more than one record in an assay (separate samples or runs), and their calls can disagree.

By UniProt entry, the sequences of proteins in these tests, tags left out.
UniProt P18054, whole entry, looked up: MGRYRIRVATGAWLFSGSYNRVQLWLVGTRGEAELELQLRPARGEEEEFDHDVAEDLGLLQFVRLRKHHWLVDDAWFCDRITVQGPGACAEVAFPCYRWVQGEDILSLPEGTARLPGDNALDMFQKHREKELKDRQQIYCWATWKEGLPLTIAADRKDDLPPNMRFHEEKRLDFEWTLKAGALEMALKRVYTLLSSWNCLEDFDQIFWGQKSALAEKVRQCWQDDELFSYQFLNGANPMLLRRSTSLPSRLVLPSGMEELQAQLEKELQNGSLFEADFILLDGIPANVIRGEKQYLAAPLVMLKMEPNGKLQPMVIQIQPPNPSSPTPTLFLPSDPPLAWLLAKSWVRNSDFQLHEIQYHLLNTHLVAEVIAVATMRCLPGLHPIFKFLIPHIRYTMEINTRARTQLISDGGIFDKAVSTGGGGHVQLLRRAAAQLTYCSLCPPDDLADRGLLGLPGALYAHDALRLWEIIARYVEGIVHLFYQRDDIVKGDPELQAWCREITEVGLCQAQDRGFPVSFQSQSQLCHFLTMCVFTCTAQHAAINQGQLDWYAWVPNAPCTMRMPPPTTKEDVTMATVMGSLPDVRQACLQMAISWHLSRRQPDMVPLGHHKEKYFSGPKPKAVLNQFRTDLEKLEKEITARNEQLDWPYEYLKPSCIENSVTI

target: Polyunsaturated fatty acid lipoxygenase ALOX12 (Homo sapiens) (UniProt P18054); assay: Primary qHTS assay for inhibitors of human arachidonate 12S-lipoxygenase (ALOX12): Round 2; conditions: purified 12hLO, xylenol orange hydroperoxide absorbance; activity change, negative = inhibition: at 108 µM (top of the series) unless noted
Summary of the method: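 Hydroperoxide product was detected by ferrous iron/xylenol orange as the 573 to 405 nm absorbance ratio. Arachidonic acid at 40 uM (final) was turned over for 30 min at room temperature by 150 nM human 12hLO, pH 7.0 Hepes buffer, after 15 min compound preincubation.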
On the % scale 0 is the no-effect control and ±100 the full control effect; potency means the concentration at half of the fitted maximal effect.

Row | SMILES | Potency | activity change, negative = inhibition
1 | CC(=O)NC1(C)CCN(Cc2ccc(-c3ccc([S+](C)(=O)[O-])cc3)cc2)C1 (configuration not stated) | inconclusive: 25.1 µM [inhibitor, full curve, poor fit] | 
2 | Cn1cc(CN2CCn3c(nnc3[C@@H]3C[C@@H](O)CN3Cc3cccnc3)C2)c2ccccc21 | inconclusive: 28.2 µM [inhibitor, full curve] | 
3 | CC(C)(CC(=O)O)CC(=O)Nc1ccc(Oc2ccccc2)cc1 |  | inactive: -25.9%
4 | COc1ccc(-c2cnc3c(NC=O)cc(-c4ccc(N(C)C)cc4)cn23)cc1OC | inconclusive: 126 µM [inhibitor, single point] | 
5 | COc1cc(/C=C2\SC(c3ccc(C)cc3)=NC2=O)ccc1O | active: 6.31 µM | 
6 | O=C(CSc1ccc(F)cc1)c1ccc2c(c1)-c1ccccc1C2 | inconclusive: 12.6 µM [inhibitor, full curve] | 
7 | CN(C)c1ccc(C(=O)N2CCN(C(=O)c3ccc(N(C)C)cc3)[C@H](C(=O)N[C@H](Cc3c[nH]c4ccccc34)C(N)=O)C2)cc1 | inconclusive: 22.4 µM [inhibitor, full curve, poor fit] | 
8 | Cc1ccc(NC(=O)Cn2c(C)cc3nc4n(c(=O)c32)CCCC4)c(Cl)c1 |  | inactive: 28.8%
9 | CC(=O)NCCNc1ccnc(-c2ccccc2C)n1 | inconclusive: 12.6 µM [inhibitor, partial curve, poor fit] | 
10 | CCOC(=O)C1CCCN(Cc2ccc(-c3ccccc3)cc2)C1 (configuration not stated) | inconclusive: 0.501 µM [inhibitor, full curve, poor fit] | 
11 | O=c1c2ccccc2nc(/C=C/c2cccc([N+](=O)[O-])c2)n1CCO |  | inactive: -4.01%
12 | Cc1nc(NCc2ccccn2)c2ccccc2n1 | inconclusive: 15.8 µM [inhibitor, full curve, poor fit] | 
13 | CCC(Sc1nnc(-c2ccc(OC)cc2)c(-c2ccc(OC)cc2)n1)C(=O)NC1CCCCC1 (configuration not stated) | inconclusive: 63.1 µM [inhibitor, partial curve, poor fit] | 
14 | O=C(Cc1cccc(NC(=O)C2CCN(C(=O)c3ccccc3)CC2)c1)Nc1cccc(C(=O)N2CCOCC2)c1 | inconclusive: 35.5 µM [inhibitor, single point] | 
15 | Cc1ccc2nc(-c3ccc(F)cc3)c(CC3CCCCC3)n2c1 |  | inactive: -18.9%
16 | CC1CCCN(S(=O)(=O)c2ccc(NC(=O)c3nc(SC(C)C)ncc3Cl)cc2)C1 (configuration not stated) | inconclusive: 100 µM [inhibitor, partial curve, poor fit] | 
17 | COc1ccc(CN2CCCC(C(=O)N3CCc4ccccc4C3)C2)cc1OC (configuration not stated) | active: 0.708 µM | 
18 | COc1cccc(NC(=O)Nc2c(NC3CCCCC3)c3ccccc3oc2=O)c1 | inconclusive: 0.355 µM [inhibitor, full curve, poor fit] | 
19 | CNc1nc2cnc(-c3ccsc3)cc2n1Cc1ccccc1 | inconclusive: 141 µM [inhibitor, single point] | 
20 | Cc1ccc(/C(N)=N/OC(=O)N2CCOCC2)cc1 |  | inactive: 21.1%
21 | Cc1ccc(CSc2sc(C(=O)c3ccccc3)c(N)c2C#N)cc1 | inconclusive: 0.891 µM [inhibitor, partial curve, poor fit] | 
22 | CCOC(=O)c1sc2nc(CC)c3c(c2c1N)CC(C)(C)OC3 |  | inactive: -1.19%
23 | CC(=O)Nc1ccc(-c2csc(Nc3ccccc3)n2)cc1 | inconclusive: 22.4 µM [inhibitor, full curve] | 

Row | SMILES | Potency | activity change, negative = inhibition
24 | CCn1c(SCC(=O)Nc2ccc(NC(C)=O)cc2)nc2c([nH]c3ccccc32)c1=O | inconclusive: 89.1 µM [inhibitor, partial curve, poor fit] | 
25 | O=C(NC(=S)NNS(=O)(=O)c1ccccc1)c1ccc([N+](=O)[O-])cc1 | inconclusive: 56.2 µM [inhibitor, partial curve, poor fit] | 
26 | Nc1c(Cl)cc(Nc2ncccc2[N+](=O)[O-])cc1Cl |  | inactive: 0.701%
27 | COCCCn1c(=O)[nH]c2cccnc21 | inconclusive: 50.1 µM [inhibitor, partial curve] | 
28 | Brc1ccc(-c2nnc(-c3cccs3)o2)o1 | inconclusive: 39.8 µM [inhibitor, partial curve, poor fit] | 
29 | CC(Oc1ccc(C(N)=O)cc1)C(N)=O (configuration not stated) |  | inactive: 9.33%
30 | Cc1ccnc(NC(=O)c2cc(-c3ccncc3)nc3ccccc23)c1 |  | inactive: 16.1%
31 | COc1ccc(-n2nc(C(=O)N3CCN(c4ccccc4OC)CC3)c3c4ccccc4n(C)c3c2=O)cc1 | inconclusive: 141 µM [inhibitor, partial curve, poor fit] | 
32 | COc1cc2c(cc1NC(=O)Cc1ccc(C)cc1)oc1ccccc12 |  | inactive: -9.95%
33 | COC(=O)c1c(C)[nH]c(-c2ccc(F)cc2OC)c1C1C(=O)Nc2ccc(F)cc21 (configuration not stated) | inconclusive: 12.6 µM [inhibitor, partial curve, poor fit] | 
34 | CNC(=O)CCn1ncc2cc(OCc3ccccc3-c3ccc(F)c(Cl)c3)ccc21 | inconclusive: 100 µM [inhibitor, single point] | 
35 | COc1ccc(N2CC(NC(=O)c3ccc(S(=O)(=O)N4CCCC4)cc3)CC2=O)cc1 (configuration not stated) | inconclusive: 141 µM [inhibitor, partial curve, poor fit] | 
36 | CC(=O)NC(c1ccc(Cl)cc1Cl)c1ccc2cccnc2c1O (configuration not stated) | inconclusive: 44.7 µM [inhibitor, partial curve, poor fit] | 
37 | CNC(=S)N/N=C/c1ccc(F)cc1F | inconclusive: 0.224 µM [inhibitor, full curve, poor fit] | 
38 | O=C1C=C(/C=C/C2C=CC=CC2)C[C@@H](c2ccc(Cl)cc2)C1 (some centres not stated) | inconclusive: 50.1 µM [inhibitor, partial curve, poor fit] | 
39 | CC(c1cc2ccccc2o1)N(C)Cc1nnc(-c2ccccc2)o1 (configuration not stated) |  | inactive: 21.6%
40 | S=C(NCCc1ccccc1)Nc1ccc(Br)cc1 | active: 35.5 µM | 
41 | COc1ccc(N2CC3CCC(C2)N3Cc2ccc(-c3cccnc3)cc2)cc1 | inconclusive: 3.55 µM [inhibitor, full curve, poor fit] | 
42 | S=c1nc(C2COc3ccccc3O2)[nH][nH]1 (configuration not stated) | inconclusive: 44.7 µM [inhibitor, partial curve] | 
43 | CCC(C)N1CCN(C(=O)c2cccs2)CC1 (configuration not stated) | inconclusive: 0.398 µM [inhibitor, full curve, poor fit] | 
44 | CC(C)OC(=O)NCCOC(N)=O |  | inactive: 12.6%
45 | COCCN1C(=O)N(C2Cc3ccccc3C2)C(=O)C12CCN(Cc1ccc(CO)o1)CC2 | inconclusive: 5.01 µM [inhibitor, partial curve, poor fit] | 
46 | COc1ccccc1Oc1c(CCC(=O)NCc2ccccc2)c(C)nn1-c1ccc(F)cc1 |  | inactive: 23%

Row | SMILES | Potency | activity change, negative = inhibition
47 | Cn1nccc1C(=O)NCc1ccc2c(c1)CCN2C(=O)c1ccc(F)cc1 | inconclusive: 141 µM [inhibitor, partial curve, poor fit] | 
48 | Cc1ccc(C(=O)N2CCC(c3c[nH]c4ccccc34)(c3c[nH]c4ccccc34)CC2)cc1 | inconclusive: 126 µM [inhibitor, partial curve, poor fit] | 
49 | Cc1ccc(-c2nc3ccccc3n2Cc2ccc(F)cc2)o1 | inconclusive: 28.2 µM [inhibitor, partial curve, poor fit] | 
50 | CCN1CCN(C(=O)C2=CC(c3ccccc3OC)=NS(=O)(=O)N2C)CC1 |  | inactive: -12.5%
51 | COC(=O)C1=C(C)N(Cc2ccc(Cl)cc2)C(=S)NC1c1ccc(OC)cc1 (configuration not stated) | active: 39.8 µM | 
52 | CCc1ccc(CNC(=O)C(=O)c2c(C)[nH]c3ccccc23)cc1 | inconclusive: 35.5 µM [inhibitor, partial curve, poor fit] | 
53 | O=C(O)c1cccc(N2C(=O)C3C4C=CC(C4=C(c4ccccc4)c4ccccc4)C3C2=O)c1 (configuration not stated) | inconclusive: 56.2 µM [inhibitor, partial curve, poor fit] | 
54 | Cc1cnc(C(=O)OCC(=O)Nc2ccc(Cl)cn2)cn1 | inconclusive: 89.1 µM [inhibitor, partial curve, poor fit] | 
55 | COc1cccc(CNC(=O)c2ccc(Cn3c(SCc4ccccc4)nc4cccnc43)cc2)c1 |  | inactive: -8.61%
56 | O=C(CCc1nc2ccccc2c(=O)[nH]1)Nc1nnc(SCc2ccccc2)s1 | inconclusive: 63.1 µM [inhibitor, partial curve, poor fit] | 
57 | COc1ccccc1-c1nccc(NCc2cccnc2)n1 | inconclusive: 15.8 µM [inhibitor, partial curve, poor fit] | 
58 | CCOC(=O)C1=C(N)n2c(s/c(=C\c3cccs3)c2=O)=C(C(=O)OCC)C1c1cccs1 (configuration not stated) | inconclusive: 5.01 µM [inhibitor, full curve, poor fit] | 
59 | COc1ccccc1C(=O)NC(CCSC)C(=O)NCCCSc1ccccc1 (configuration not stated) | inconclusive: 44.7 µM [inhibitor, partial curve, poor fit] | 
60 | CCCCNC(=O)CSc1cc(C(=O)NC2CC2)c2ccccc2n1 |  | inactive: 0.986%
61 | Cc1cc(-c2ccccc2)c(-c2nc3ccccc3s2)[nH]1 | inconclusive: 39.8 µM [inhibitor, partial curve, poor fit] | 
62 | COCC(=O)Nc1cc([N+](=O)[O-])ccc1C |  | inactive: 4.94%
63 | CC(C)N1CCN(Cc2ccc(OC3CCCC3)cc2)CC1CCO (configuration not stated) |  | inactive: 0%
64 | O=C(Cc1cccs1)Nc1cccc(-c2nc3cc4ccccc4cc3[nH]2)c1 | inconclusive: 7.94 µM [inhibitor, full curve, poor fit] | 
65 | CCCCCCn1nc(C(=O)Nc2cccc(S(=O)(=O)NC(C)(C)C)c2)c2ccccc2c1=O |  | inactive: 2.75%
66 | S=C1NCc2cncnc2N1 | inconclusive: 79.4 µM [inhibitor, single point] | 
67 | O=C(CN1CCN(c2ccc(F)cc2)CC1)c1ccc2c(c1)OCO2 |  | inactive: 7.01%

Some values from the entries so far.
Value of COc1ccc(CN2CCCC(C(=O)N3CCc4ccccc4C3)C2)cc1OC (configuration not stated) under Potency: active: 0.708 µM
Value of COc1ccc(N2CC(NC(=O)c3ccc(S(=O)(=O)N4CCCC4)cc3)CC2=O)cc1 (configuration not stated) under Potency: inconclusive: 141 µM [inhibitor, partial curve, poor fit]
